Measured values published in the supplement of paper PMC10849652.
Some of the results follow.

The chains behind the UniProt entries cited, without tags or fusion partners. Where a name states a change or a piece, a line headed by the entry shows the natural chain unless it says otherwise.
UniProt Q03154: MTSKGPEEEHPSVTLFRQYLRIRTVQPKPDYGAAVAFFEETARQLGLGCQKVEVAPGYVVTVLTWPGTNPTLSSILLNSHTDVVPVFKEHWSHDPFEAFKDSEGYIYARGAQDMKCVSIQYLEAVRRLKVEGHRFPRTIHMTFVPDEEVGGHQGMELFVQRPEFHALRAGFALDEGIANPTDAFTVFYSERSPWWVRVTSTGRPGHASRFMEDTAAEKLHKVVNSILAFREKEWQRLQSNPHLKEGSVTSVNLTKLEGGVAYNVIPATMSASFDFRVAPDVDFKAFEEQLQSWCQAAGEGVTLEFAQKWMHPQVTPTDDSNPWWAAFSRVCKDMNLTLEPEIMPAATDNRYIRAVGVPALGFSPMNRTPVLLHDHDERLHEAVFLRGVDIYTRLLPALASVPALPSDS
UniProt P61163, whole entry, looked up: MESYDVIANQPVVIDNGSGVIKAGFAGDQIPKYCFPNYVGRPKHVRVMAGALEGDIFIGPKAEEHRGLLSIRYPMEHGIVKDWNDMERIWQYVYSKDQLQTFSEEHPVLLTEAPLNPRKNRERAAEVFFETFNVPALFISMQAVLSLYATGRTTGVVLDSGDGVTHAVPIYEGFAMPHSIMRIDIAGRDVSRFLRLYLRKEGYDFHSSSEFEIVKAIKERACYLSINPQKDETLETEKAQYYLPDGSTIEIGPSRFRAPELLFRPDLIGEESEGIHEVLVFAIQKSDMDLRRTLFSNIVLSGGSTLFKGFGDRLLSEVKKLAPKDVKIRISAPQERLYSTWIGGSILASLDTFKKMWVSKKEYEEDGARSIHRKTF
UniProt Q02952: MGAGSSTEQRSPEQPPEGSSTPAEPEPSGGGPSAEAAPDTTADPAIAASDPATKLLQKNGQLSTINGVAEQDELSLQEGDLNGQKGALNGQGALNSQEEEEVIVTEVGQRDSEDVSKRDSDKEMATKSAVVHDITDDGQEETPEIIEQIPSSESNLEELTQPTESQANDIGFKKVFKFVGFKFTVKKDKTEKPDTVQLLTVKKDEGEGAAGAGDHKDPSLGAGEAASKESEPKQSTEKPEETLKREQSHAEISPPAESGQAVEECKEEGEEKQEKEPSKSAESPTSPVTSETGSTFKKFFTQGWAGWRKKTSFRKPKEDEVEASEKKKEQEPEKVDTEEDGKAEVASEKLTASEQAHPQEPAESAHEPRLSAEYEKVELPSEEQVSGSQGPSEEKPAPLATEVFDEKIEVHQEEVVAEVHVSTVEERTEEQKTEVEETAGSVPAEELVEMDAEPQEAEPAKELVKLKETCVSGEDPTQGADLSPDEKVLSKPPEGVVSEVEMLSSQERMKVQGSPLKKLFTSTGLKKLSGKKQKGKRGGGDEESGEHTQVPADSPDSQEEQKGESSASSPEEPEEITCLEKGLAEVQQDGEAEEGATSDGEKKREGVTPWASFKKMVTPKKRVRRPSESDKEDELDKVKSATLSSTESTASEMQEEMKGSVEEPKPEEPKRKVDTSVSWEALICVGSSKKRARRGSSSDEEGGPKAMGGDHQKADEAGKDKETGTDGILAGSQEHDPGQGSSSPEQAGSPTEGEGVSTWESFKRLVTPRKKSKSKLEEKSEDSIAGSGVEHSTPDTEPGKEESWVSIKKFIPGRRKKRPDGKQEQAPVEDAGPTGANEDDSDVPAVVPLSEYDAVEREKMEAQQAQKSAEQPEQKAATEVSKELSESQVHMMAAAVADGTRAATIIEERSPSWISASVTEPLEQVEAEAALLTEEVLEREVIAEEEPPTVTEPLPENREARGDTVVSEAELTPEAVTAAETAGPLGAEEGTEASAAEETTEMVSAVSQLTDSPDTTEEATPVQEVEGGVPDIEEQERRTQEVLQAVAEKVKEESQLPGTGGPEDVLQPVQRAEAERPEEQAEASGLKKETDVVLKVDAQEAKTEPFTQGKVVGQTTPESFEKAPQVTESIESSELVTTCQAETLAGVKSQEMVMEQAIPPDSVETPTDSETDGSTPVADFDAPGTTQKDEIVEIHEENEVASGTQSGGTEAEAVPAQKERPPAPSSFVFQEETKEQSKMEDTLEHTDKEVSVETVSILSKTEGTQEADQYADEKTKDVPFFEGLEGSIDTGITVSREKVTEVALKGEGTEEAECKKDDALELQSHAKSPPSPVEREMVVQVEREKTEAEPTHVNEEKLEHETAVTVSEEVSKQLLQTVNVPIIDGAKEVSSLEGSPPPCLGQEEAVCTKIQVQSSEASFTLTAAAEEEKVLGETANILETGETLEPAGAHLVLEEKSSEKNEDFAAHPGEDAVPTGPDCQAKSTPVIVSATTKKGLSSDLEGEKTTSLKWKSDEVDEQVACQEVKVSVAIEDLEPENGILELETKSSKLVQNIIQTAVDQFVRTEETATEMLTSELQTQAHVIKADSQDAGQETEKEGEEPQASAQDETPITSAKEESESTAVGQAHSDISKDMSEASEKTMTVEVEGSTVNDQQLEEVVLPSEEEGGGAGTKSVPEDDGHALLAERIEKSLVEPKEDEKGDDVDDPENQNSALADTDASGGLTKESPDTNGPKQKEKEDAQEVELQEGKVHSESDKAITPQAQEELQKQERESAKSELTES
UniProt Q9UNA0: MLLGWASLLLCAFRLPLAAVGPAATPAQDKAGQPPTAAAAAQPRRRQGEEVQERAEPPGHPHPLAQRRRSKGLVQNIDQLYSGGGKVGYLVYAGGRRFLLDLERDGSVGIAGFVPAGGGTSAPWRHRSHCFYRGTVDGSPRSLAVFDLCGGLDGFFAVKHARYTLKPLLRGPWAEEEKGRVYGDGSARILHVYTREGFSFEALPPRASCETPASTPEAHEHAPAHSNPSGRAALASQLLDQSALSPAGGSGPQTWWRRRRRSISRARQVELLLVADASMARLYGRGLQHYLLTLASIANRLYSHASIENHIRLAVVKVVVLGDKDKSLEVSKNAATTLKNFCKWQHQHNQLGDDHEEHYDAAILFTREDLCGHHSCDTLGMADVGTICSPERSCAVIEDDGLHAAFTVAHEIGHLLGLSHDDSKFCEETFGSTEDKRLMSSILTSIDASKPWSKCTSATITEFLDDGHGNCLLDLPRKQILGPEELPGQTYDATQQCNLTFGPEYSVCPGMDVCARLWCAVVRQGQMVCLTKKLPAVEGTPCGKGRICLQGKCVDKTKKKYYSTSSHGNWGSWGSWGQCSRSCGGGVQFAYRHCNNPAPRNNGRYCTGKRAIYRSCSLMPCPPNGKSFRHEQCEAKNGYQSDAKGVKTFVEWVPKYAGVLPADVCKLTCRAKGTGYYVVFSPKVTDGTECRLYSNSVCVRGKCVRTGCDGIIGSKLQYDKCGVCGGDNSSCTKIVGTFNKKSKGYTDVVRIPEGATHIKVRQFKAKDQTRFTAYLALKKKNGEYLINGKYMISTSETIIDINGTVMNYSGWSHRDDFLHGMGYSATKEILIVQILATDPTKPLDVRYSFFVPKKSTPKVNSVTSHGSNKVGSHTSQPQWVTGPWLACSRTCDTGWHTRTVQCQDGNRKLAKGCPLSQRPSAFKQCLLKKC
UniProt Q9BRQ8: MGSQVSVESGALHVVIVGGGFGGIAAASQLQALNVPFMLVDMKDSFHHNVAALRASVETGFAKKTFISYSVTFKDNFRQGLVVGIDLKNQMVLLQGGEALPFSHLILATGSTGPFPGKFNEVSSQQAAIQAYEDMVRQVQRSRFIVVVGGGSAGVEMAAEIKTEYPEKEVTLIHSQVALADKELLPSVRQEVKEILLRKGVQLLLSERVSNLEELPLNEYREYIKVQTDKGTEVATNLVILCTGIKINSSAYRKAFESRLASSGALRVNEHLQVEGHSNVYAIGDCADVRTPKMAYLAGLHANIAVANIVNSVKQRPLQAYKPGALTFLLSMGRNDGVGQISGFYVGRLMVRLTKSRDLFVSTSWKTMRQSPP
UniProt Q9NRZ7: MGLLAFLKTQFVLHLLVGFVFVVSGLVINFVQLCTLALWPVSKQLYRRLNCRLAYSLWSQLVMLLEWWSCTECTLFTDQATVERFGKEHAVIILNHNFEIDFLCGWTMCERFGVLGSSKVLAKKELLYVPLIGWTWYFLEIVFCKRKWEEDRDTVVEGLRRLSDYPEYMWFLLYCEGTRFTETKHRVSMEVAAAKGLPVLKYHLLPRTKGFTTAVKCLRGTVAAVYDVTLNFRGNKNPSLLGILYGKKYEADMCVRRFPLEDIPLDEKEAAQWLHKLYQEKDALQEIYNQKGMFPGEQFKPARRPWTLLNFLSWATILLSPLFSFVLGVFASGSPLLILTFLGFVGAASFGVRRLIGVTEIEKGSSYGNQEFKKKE
UniProt Q53FZ2: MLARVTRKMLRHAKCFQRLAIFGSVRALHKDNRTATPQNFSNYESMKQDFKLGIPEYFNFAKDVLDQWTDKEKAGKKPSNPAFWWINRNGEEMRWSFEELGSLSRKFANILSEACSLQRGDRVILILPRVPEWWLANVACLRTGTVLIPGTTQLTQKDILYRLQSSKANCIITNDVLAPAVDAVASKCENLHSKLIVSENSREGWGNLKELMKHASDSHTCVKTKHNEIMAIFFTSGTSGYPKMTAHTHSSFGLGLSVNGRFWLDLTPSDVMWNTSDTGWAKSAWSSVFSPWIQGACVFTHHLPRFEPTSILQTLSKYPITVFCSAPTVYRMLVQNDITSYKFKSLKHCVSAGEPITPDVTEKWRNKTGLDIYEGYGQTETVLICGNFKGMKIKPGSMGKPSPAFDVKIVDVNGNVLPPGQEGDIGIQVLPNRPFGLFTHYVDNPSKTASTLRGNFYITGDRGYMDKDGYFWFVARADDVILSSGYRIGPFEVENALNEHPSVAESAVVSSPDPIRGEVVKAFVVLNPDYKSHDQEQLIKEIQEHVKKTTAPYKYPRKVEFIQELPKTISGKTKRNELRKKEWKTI
UniProt O96019, whole entry, looked up: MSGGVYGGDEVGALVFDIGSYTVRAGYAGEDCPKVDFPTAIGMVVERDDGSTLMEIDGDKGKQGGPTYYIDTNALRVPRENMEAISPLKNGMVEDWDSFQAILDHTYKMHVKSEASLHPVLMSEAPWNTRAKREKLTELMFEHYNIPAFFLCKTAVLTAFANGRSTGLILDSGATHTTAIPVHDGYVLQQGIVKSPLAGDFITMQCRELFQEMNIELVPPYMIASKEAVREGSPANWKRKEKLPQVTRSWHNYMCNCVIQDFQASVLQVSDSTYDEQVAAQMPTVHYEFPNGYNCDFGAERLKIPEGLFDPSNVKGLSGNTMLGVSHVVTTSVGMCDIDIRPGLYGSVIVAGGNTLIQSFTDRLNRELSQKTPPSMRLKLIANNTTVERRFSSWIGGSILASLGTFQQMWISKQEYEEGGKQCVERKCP
UniProt P55263: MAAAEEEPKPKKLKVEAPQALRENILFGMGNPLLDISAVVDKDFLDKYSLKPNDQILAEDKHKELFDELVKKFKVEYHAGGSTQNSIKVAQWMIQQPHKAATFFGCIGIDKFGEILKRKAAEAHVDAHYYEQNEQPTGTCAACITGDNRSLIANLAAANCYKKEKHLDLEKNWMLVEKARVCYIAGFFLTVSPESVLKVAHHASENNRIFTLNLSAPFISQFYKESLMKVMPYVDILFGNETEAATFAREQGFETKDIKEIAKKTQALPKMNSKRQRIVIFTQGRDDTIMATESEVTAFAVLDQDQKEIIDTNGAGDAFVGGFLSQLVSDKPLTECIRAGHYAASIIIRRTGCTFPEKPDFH
UniProt Q9NX46: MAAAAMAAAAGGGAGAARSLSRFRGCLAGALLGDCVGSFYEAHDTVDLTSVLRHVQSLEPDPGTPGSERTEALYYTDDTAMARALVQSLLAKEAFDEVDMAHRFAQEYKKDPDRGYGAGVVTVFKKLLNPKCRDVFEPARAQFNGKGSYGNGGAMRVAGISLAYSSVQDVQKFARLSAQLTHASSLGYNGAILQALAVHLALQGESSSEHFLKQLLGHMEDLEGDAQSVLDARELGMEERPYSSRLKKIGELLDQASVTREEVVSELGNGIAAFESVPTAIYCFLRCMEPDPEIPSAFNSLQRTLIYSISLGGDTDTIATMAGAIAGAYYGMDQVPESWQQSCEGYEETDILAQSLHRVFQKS
UniProt Q9BV57: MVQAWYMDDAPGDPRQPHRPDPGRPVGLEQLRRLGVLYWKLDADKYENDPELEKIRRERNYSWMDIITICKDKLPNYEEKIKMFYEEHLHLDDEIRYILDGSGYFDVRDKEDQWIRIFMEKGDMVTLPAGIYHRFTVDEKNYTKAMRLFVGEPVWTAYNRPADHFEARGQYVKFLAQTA
UniProt Q96BJ3: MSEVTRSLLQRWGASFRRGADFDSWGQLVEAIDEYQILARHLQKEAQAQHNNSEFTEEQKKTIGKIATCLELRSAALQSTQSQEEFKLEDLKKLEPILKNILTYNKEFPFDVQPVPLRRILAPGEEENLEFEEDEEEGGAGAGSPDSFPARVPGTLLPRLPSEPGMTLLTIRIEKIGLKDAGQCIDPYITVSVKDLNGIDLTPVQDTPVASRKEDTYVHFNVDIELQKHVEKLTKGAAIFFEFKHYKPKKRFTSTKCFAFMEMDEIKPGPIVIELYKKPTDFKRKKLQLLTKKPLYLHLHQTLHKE

Columns and labels:
Experiment in all cases: log2 fold change, soluble protein after heating vs DMSO (PISA); higher = thermal stabilisation; K562 lysate, 10 uM; active = over 0.2 and 3.5 SD of the protein, either way, in both replicates (recomputed)
[1] = compound: NCC(=O)Nc1ccc(-n2nc(C(F)(F)F)cc2-c2ccc3c(ccc4ccccc43)c2)cc1
Outline: (§1)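 Pellets of K562 cells were dounce-homogenised in PBS pH 7.4 with 1 mM MgCl2, and the crude extract was held at 1 mg/mL protein for a 30 min treatment with 10 μM compound. Aliquots were heated for 3 min over 48°C-58°C and pooled before NP-40 was added to 0.5% at 4°C. The supernatant from 21,000xg for 90 min was quantified by TMTpro 16plex LC-MS/MS with channel sums equalised. Values are reported from duplicates as log-two fold change in thermal stability relative to solvent controls.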

vorinostat = compound: O=C(CCCCCCC(=O)Nc1ccccc1)NO [vorinostat]
Outline: as §1

silmitasertib = compound: O=C(O)c1ccc2c(c1)nc(Nc1cccc(Cl)c1)c1ccncc12 [silmitasertib]
Outline: as §1

[2] = compound: O=C1NC(=O)C(c2cnc3ccccn23)=C1c1cn2c3c(cc(F)cc13)CN(C(=O)N1CCCCC1)CC2
Outline: as §1

entospletinib = compound: c1cn2cc(-c3ccc4cn[nH]c4c3)nc(Nc3ccc(N4CCOCC4)cc3)c2n1 [entospletinib]
Outline: as §1

Measured: log2 fold change

ADNP (UniProt Q9H2P0)
inactive: [1] 0.049 | vorinostat -0.025 | silmitasertib 0.003 | [2] 0.018 | entospletinib -0.07

ADAT2 (UniProt Q7Z6V5)
inactive: [1] -0.051 | vorinostat -0.065 | silmitasertib -0.028 | [2] 0.037 | entospletinib 0.055

AGPAT2 (UniProt O15120)
inactive: [1] -0.234 | vorinostat 0.104 | silmitasertib -0.026 | [2] -0.052 | entospletinib 0.063

ACSS2 isoform 2 (UniProt Q9NR19)
inactive: [1] -0.046 | vorinostat -0.215 | silmitasertib 0.019 | [2] -0.01 | entospletinib -0.025

ACP2 (UniProt P11117)
inactive: [1] -0.012 | vorinostat 0.085 | silmitasertib 0.067 | [2] 0 | entospletinib -0.024

ACY1 (UniProt Q03154)
inactive: [1] -0.004 | vorinostat 0.108 | silmitasertib -0.018 | [2] -0.048 | entospletinib 0.004

AKAP8 (UniProt O43823)
inactive: [1] 0.047 | vorinostat -0.095 | silmitasertib 0.019 | [2] 0.023 | entospletinib -0.046

AKAP11 (UniProt Q9UKA4)
inactive: [1] -0.066 | vorinostat -0.164 | silmitasertib 0.019 | [2] -0.057 | entospletinib 0.015

ACTR1A (UniProt P61163)
inactive: [1] 0.003 | vorinostat 0.104 | silmitasertib -0.024 | [2] 0.048 | entospletinib -0.007

ACOX1 isoform 2 (UniProt Q15067)
inactive: [1] 0.009 | vorinostat 0.09 | silmitasertib 0.009 | [2] 0.04 | entospletinib -0.012

ADO (UniProt Q96SZ5)
inactive: [1] 0.021 | vorinostat -0.058 | silmitasertib 0.073 | [2] -0.014 | entospletinib 0.025

AK3 (UniProt Q9UIJ7)
inactive: [1] -0.004 | vorinostat 0.134 | silmitasertib -0.028 | [2] -0.015 | entospletinib 0.006

2 neighbouring entries out of the list so far, for reference:
AGPAT2 (UniProt O15120)
inactive: [1] -0.234 | vorinostat 0.104 | silmitasertib -0.026 | [2] -0.052 | entospletinib 0.063

ACSS2 isoform 2 (UniProt Q9NR19)
inactive: [1] -0.046 | vorinostat -0.215 | silmitasertib 0.019 | [2] -0.01 | entospletinib -0.025

Following part

ADH5 (UniProt P11766)
inactive: [1] 0.014 | vorinostat 0.113 | silmitasertib -0.015 | [2] -0.001 | entospletinib 0.009

ACTR6 (UniProt Q9GZN1)
inactive: [1] 0.013 | vorinostat 0.061 | silmitasertib 0.03 | [2] -0.082 | entospletinib -0.014

AKAP12 (UniProt Q02952)
inactive: [1] 0.101 | vorinostat -0.068 | silmitasertib 0.006 | [2] 0.007 | entospletinib -0.127

AFDN (UniProt J3KN01)
inactive: [1] 0.006 | vorinostat -0.053 | silmitasertib 0.022 | [2] -0.028 | entospletinib -0.013

AKNA (UniProt Q7Z591)
inactive: [1] 0.033 | vorinostat -0.033 | silmitasertib 0.041 | [2] -0.022 | entospletinib -0.024

ACOT8 (UniProt O14734)
inactive: [1] -0.006 | vorinostat 0.063 | silmitasertib 0.032 | [2] -0.003 | entospletinib -0.044

ADAMTS5 (UniProt Q9UNA0)
inactive: [1] 0.137 | vorinostat 0.028 | silmitasertib -0.065 | [2] 0.062 | entospletinib -0.125

AIMP2 (UniProt Q13155)
inactive: [1] -0.046 | silmitasertib 0.048 | [2] 0.017 | entospletinib -0.017
active: vorinostat -0.347

ACTR10 (UniProt Q9NZ32)
inactive: [1] 0 | vorinostat 0.013 | silmitasertib -0.022 | [2] 0.017 | entospletinib -0.005

ADAR isoform 4 (UniProt P55265)
active: vorinostat -0.35
inactive: [1] -0.029 | silmitasertib 0.019 | [2] -0.031 | entospletinib 0.022

AKR1B1 (UniProt P15121)
inactive: [1] -0.018 | silmitasertib -0.004 | [2] -0.026 | entospletinib -0.065
active: vorinostat 0.24

ADSS2 (UniProt P30520)
inactive: [1] 0.002 | vorinostat 0.004 | silmitasertib -0.003 | [2] -0.003 | entospletinib 0.007

AGFG2 (UniProt O95081)
inactive: [1] 0.11 | vorinostat 0.065 | silmitasertib 0.141 | [2] -0.16 | entospletinib -0.022

AIFM2 (UniProt Q9BRQ8)
inactive: [1] -0.014 | vorinostat -0.261 | silmitasertib -0.015 | [2] 0.188 | entospletinib 0.003

Random excerpt: two records from the list
AGFG2 (UniProt O95081)
inactive: [1] 0.11 | vorinostat 0.065 | silmitasertib 0.141 | [2] -0.16 | entospletinib -0.022

ADAR isoform 4 (UniProt P55265)
active: vorinostat -0.35
inactive: [1] -0.029 | silmitasertib 0.019 | [2] -0.031 | entospletinib 0.022

Later entries

ADD3 (UniProt Q9UEY8)
inactive: [1] 0.008 | vorinostat 0.029 | silmitasertib -0.04 | [2] -0.042 | entospletinib -0.024

AFTPH isoform 9 (UniProt Q6ULP2)
inactive: [1] 0.017 | vorinostat -0.031 | silmitasertib 0.018 | [2] -0.008 | entospletinib 0

ADAM9 (UniProt Q13443)
inactive: [1] 0.003 | vorinostat 0.193 | silmitasertib 0.002 | [2] -0.004 | entospletinib -0.064

AKR7A2 (UniProt O43488)
inactive: [1] 0.011 | vorinostat -0.089 | silmitasertib 0.016 | [2] -0.039 | entospletinib 0.029

ADRM1 (UniProt Q16186)
inactive: [1] 0.051 | silmitasertib -0.027 | [2] -0.04 | entospletinib -0.002
active: vorinostat -0.231

ACTR2 (UniProt P61160)
inactive: [1] 0.012 | vorinostat 0.108 | silmitasertib 0.007 | [2] 0.015 | entospletinib -0.003

ACTA1 (UniProt P68133)
inactive: [1] 0.031 | vorinostat -0.023 | silmitasertib 0.005 | [2] 0.026 | entospletinib 0.017

AGPAT3 isoform 3 (UniProt Q9NRZ7)
inactive: [1] -0.044 | vorinostat -0.21 | silmitasertib 0.028 | [2] 0.015 | entospletinib -0.025

ACTL8 (UniProt Q9H568)
inactive: [1] -0.011 | vorinostat 0.091 | silmitasertib 0.065 | [2] 0.018 | entospletinib -0.082

ACSM3 (UniProt Q53FZ2)
inactive: [1] 0.009 | vorinostat 0.041 | silmitasertib -0.021 | [2] -0.026 | entospletinib -0.029

AKR1C3 (UniProt P42330)
active: vorinostat 0.546
inactive: [1] -0.009 | silmitasertib 0.044 | [2] 0.009 | entospletinib 0.059

AFF4 (UniProt Q9UHB7)
inactive: [1] -0.119 | vorinostat 0.078 | silmitasertib -0.04 | [2] -0.031 | entospletinib -0.088

ACP1 (UniProt P24666)
inactive: [1] 0.008 | vorinostat -0.085 | silmitasertib 0.08 | [2] 0.015 | entospletinib -0.041

AHCY (UniProt P23526)
inactive: [1] -0.018 | vorinostat -0.027 | silmitasertib 0.029 | [2] -0.004 | entospletinib 0.024

AGO2 (UniProt Q9UKV8)
inactive: [1] 0.028 | vorinostat 0.044 | silmitasertib -0.037 | [2] 0.016 | entospletinib -0.022

ACTL6A (UniProt O96019)
inactive: [1] 0.005 | vorinostat 0 | silmitasertib -0.005 | [2] -0.027 | entospletinib 0.003

AKAP8L (UniProt Q9ULX6)
inactive: [1] -0.045 | vorinostat -0.213 | silmitasertib -0.001 | [2] -0.078 | entospletinib -0.019

ACTR1B (UniProt P42025)
inactive: [1] 0.004 | vorinostat 0.079 | silmitasertib -0.01 | [2] -0.07 | entospletinib 0.02

ACOT7 isoform 7 (UniProt O00154)
inactive: [1] 0.006 | vorinostat 0.073 | silmitasertib 0.025 | [2] 0.01 | entospletinib 0

AGPAT5 (UniProt Q9NUQ2)
inactive: [1] -0.09 | vorinostat 0.007 | silmitasertib 0.032 | [2] -0.026 | entospletinib 0.022

ADK (UniProt P55263)
inactive: [1] -0.049 | vorinostat -0.052 | silmitasertib 0.073 | [2] 0.262 | entospletinib -0.027

ADAL (UniProt Q6DHV7)
inactive: [1] 0.006 | vorinostat 0.189 | silmitasertib -0.041 | [2] -0.039 | entospletinib -0.01

ADPRHL2 (UniProt Q9NX46)
inactive: [1] 0.013 | vorinostat 0.012 | silmitasertib 0.005 | [2] 0.039 | entospletinib -0.005

ADAM17 (UniProt P78536)
inactive: [1] 0.014 | vorinostat 0.089 | silmitasertib -0.006 | [2] 0.042 | entospletinib 0.014

AGK (UniProt Q53H12)
inactive: [1] -0.06 | vorinostat 0.033 | silmitasertib 0.037 | [2] 0.058 | entospletinib 0.032

ADI1 (UniProt Q9BV57)
inactive: [1] -0.043 | vorinostat 0.029 | silmitasertib 0.008 | [2] -0.047 | entospletinib -0.027

AIDA (UniProt Q96BJ3)
inactive: [1] 0.077 | vorinostat 0.099 | silmitasertib -0.001 | [2] -0.016 | entospletinib -0.001
